Results as given in patent US7097987.
Results are given in words; binding and its absence hold for the method and conditions named. Some entries that bind do so weakly or less than the wild type.

How the values were obtained:
[1] = target: T1, human CD81 (TAPA-1) (human) (UniProt P60033); assay: immunohistochemical staining of fresh lymphocytes and hepatocytes
T1 sequence: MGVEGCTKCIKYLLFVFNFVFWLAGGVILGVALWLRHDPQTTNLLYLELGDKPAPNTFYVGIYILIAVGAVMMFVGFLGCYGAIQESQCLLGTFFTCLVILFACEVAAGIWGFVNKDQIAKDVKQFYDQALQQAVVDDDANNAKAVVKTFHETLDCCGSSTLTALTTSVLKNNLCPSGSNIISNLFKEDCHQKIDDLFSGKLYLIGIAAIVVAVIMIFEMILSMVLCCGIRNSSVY

[2] = target: T1, human CD81 (TAPA-1) (human); assay: flow cytometry on WOP cells transfected with cDNA clone P3; E2-CHO detected with 291A2 and PE-conjugated anti-mouse Ig
[3] = target: T1, human CD81 (TAPA-1) (human); assay: WOP transfectants; insert of clone P3 sequenced and found identical to human CD81
[4] = target: T1, human CD81 (TAPA-1) (human); assay: flow cytometry competition on EBV-B cells; competitor of JS-81 staining
[5] = target: T1, human CD81 (TAPA-1) (human); assay: flow cytometry competition on B cells, % inhibition of mean fluorescence intensity
[6] = target: T1, human CD81 (TAPA-1) (human); assay: Far Western blot with 1 µg/ml recombinant E2 on A2A6 membrane proteins immunoprecipitated with JS81; detected with 291A2

Measured: binding

recombinant HCV E2 envelope protein produced in CHO cells (E2-CHO) (from UniProt P26664 384-715) (ligand)
binds: [1] | [2] | [3] | [4] | [5] | [6]
